Measurements taken from PubChem BioAssay AID248 (DTP/NCI, 2004).
The list shows only some results of the screen, not a fair sample: it gathers tests that were run many times, whatever their T/C, doses with no T/C, and many T/C values between a quarter and a half above the control. Further doses and runs are listed elsewhere. T/C is the treated group as % of the vehicle group. Some doses have a count of surviving animals in place of a T/C: the source holds a T/C of zero for them, seemingly a mark for toxic or unscored doses. Some survivor counts are full or nearly so, which does not show that the dose was tolerated: the source hardly ever lists a survival T/C far under the control, and the zero likely stands for such cases as well. Survivors were counted at the toxicity check, usually on the fifth day, unless a day is given; later deaths do not show. Schedules are NCI's codes, read here as Q, the interval in days (D) or hours (H), X, the number of doses. Some schedules carry Z or #; the key to these is not given. Some structures stand for samples that the source files as different forms (salt, stereo form or complex); doses refer to the form tested. Some entries hold several experiments; the results are listed from low to high. For survival time, the PubChem record calls one and a half times the control and up active, and a quarter to a half above the control has no call in these data; cut-offs in other NCI protocols can differ. Some T/C values are followed by the survivors on the day toxicity was checked, most often the fifth; without a count, all were alive then.

Test system: L1210 leukemia ip in BDF1 mice, survival T/C
Assay: NCI In Vivo Anticancer Drug Screen. Data for tumor model L1210 Leukemia (intraperitoneal) in B6D2F1 (BDF1) mice
Conditions: T/C endpoint: mean survival time, higher T/C = longer survival
[1] = dose: 100.0 mg/kg/injection, schedule: Q01DX009 (ip), vehicle: saline
[2] = dose: 15.0 mg/kg/injection, schedule: Q01DX Z (ip), vehicle: carboxymethylcellulose (CMC)
[3] = dose: 200.0 mg/kg/injection, schedule: Q01DX009 (ip), vehicle: saline
[4] = dose: 200.0 mg/kg/injection, schedule: Q04DX002 (ip), vehicle: Klucel (hydroxypropylcellulose) (HPC)
[5] = dose: 400.0 mg/kg/injection, schedule: Q04DX002 (ip), vehicle: Klucel (hydroxypropylcellulose) (HPC)

With `N=C(N)Cc1ccc(NC(=O)c2ccc(C(=O)Nc3ccc(CC(=N)N)cc3)cc2)cc1` the T/C (dose: 7.5 mg/kg/injection, schedule: Q01DX Z (ip), vehicle: saline) was 131 % of control, the T/C (dose: 15.0 mg/kg/injection, schedule: Q01DX Z (ip), vehicle: methylcellulose (MC)) was 131 % of control and the T/C (dose: 15.0 mg/kg/injection, schedule: Q01DX Z (ip), vehicle: saline) was 140 % of control. The T/C (dose: 16.5 mg/kg/injection, schedule: Q01DX009 (ip), vehicle: saline) was 131 % of control, the T/C (dose: 25.0 mg/kg/injection, schedule: Q01DX009 (ip), vehicle: saline) was 126 % of control and the T/C (dose: 33.0 mg/kg/injection, schedule: Q01DX001 (ip), vehicle: carboxymethylcellulose (CMC)) was 125 % of control. For the same compound, the T/C (dose: 33.0 mg/kg/injection, schedule: Q04DX003 (ip), vehicle: saline) was 127 % of control, the survivor count (dose: 37.5 mg/kg/injection, schedule: Q01DX009 (ip), vehicle: saline) was 6 of 6 and the T/C (dose: 50.0 mg/kg/injection, schedule: Q01DX001 (ip), vehicle: carboxymethylcellulose (CMC)) was 127 and 142 % of control. For the same compound, the survivor count (dose: 50.0 mg/kg/injection, schedule: Q01DX009 (ip), vehicle: saline) was 0 of 6, the T/C (dose: 50.0 mg/kg/injection, schedule: Q04DX003 (ip), vehicle: saline) was 125, 128, 132 % of control and the survivor count (dose: 60.0 mg/kg/injection, schedule: Q01DX Z (ip), vehicle: saline) was 0 of 6. For the same compound, the T/C (dose: 75.0 mg/kg/injection, schedule: Q04DX003 (ip), vehicle: saline) was 138 % of control [4 of 6 alive], the survivor count (dose: 100.0 mg/kg/injection, schedule: Q01DX001 (ip), vehicle: carboxymethylcellulose (CMC)) was 1 of 4 and the survivor count [1] was 0 of 6. The survivor count (dose: 120.0 mg/kg/injection, schedule: Q01DX Z (ip), vehicle: saline) was 0 of 6, the survivor count (dose: 200.0 mg/kg/injection, schedule: Q01DX001 (ip), vehicle: carboxymethylcellulose (CMC)) was 0 of 4 and the survivor count (dose: 400.0 mg/kg/injection, schedule: Q01DX001 (ip), vehicle: carboxymethylcellulose (CMC)) was 0 of 4.

In the case of `C=CCC1CC2(C)C(CCC3C2CCC2(C)C(OC(C)=O)CCC32)CC1=O` (centres undefined), the survivor count (dose: 400.0 mg/kg/injection, schedule: Q01DX009 (ip), vehicle: gum acacia) is reported as 5 of 5.

In the case of `CCC(C(C)N1CC(=O)NC(=O)C1)N1CC(=O)NC(=O)C1` (centres undefined), the T/C (dose: 0.25 mg/kg/injection, schedule: Q01DX009 (ip), vehicle: Klucel (hydroxypropylcellulose) (HPC)) is reported as 138 % of control, the T/C (dose: 1.0 mg/kg/injection, schedule: Q01DX009 (ip), vehicle: Klucel (hydroxypropylcellulose) (HPC)) is reported as 143 % of control and the T/C (dose: 2.0 mg/kg/injection, schedule: Q04DX003 (ip), vehicle: Klucel (hydroxypropylcellulose) (HPC)) is reported as 142 % of control [9 of 10 alive]. For the same compound, the T/C (dose: 4.0 mg/kg/injection, schedule: Q04DX003 (oral), vehicle: Klucel (hydroxypropylcellulose) (HPC)) was 145 % of control, the survivor count (dose: 8.0 mg/kg/injection, schedule: Q01DX009 (ip), vehicle: Klucel (hydroxypropylcellulose) (HPC)) was 10 of 10 and the T/C (dose: 16.0 mg/kg/injection, schedule: Q04DX003 (oral), vehicle: Klucel (hydroxypropylcellulose) (HPC)) was 128 % of control. For the same compound, the T/C (dose: 32.0 mg/kg/injection, schedule: Q04DX003 (oral), vehicle: Klucel (hydroxypropylcellulose) (HPC)) was 136 % of control [9 of 10 alive] and the survivor count (dose: 128.0 mg/kg/injection, schedule: Q04DX003 (oral), vehicle: Klucel (hydroxypropylcellulose) (HPC)) was 9 of 10.

`O=NN(CCCl)C(=O)Nc1ccccc1` was tested, and the T/C (dose: 2.0 mg/kg/injection, schedule: Q01DX Z (ip), vehicle: carboxymethylcellulose (CMC)) was 130 % of control, the T/C (dose: 3.75 mg/kg/injection, schedule: Q01DX Z (ip), vehicle: carboxymethylcellulose (CMC)) was 130 % of control and the T/C (dose: 4.0 mg/kg/injection, schedule: Q01DX Z (ip), vehicle: carboxymethylcellulose (CMC)) was 129 % of control. The T/C (dose: 6.0 mg/kg/injection, schedule: Q01DX Z (ip), vehicle: carboxymethylcellulose (CMC)) was 146 % of control, the T/C (dose: 7.5 mg/kg/injection, schedule: Q01DX Z (ip), vehicle: carboxymethylcellulose (CMC)) was 146 % of control and the T/C (dose: 8.0 mg/kg/injection, schedule: Q01DX Z (ip), vehicle: carboxymethylcellulose (CMC)) was 148 % of control. For the same compound, the T/C (dose: 9.0 mg/kg/injection, schedule: Q01DX Z (ip), vehicle: carboxymethylcellulose (CMC)) was 133 % of control, the T/C (dose: 10.0 mg/kg/injection, schedule: Q01DX Z (ip), vehicle: carboxymethylcellulose (CMC)) was 137 % of control and the T/C [2] was 142 % of control. For the same compound, the survivor count [2] was 6 of 6, the survivor count (dose: 16.0 mg/kg/injection, schedule: Q01DX Z (ip), vehicle: carboxymethylcellulose (CMC)) was 6 of 6 and the survivor count (dose: 20.0 mg/kg/injection, schedule: Q01DX Z (ip), vehicle: carboxymethylcellulose (CMC)) was 6 of 6. The survivor count (dose: 30.0 mg/kg/injection, schedule: Q01DX Z (ip), vehicle: carboxymethylcellulose (CMC)) was 5 of 6, the T/C (dose: 36.0 mg/kg/injection, schedule: Q01DX001 (ip), vehicle: carboxymethylcellulose (CMC)) was 133 % of control and the survivor count (dose: 40.0 mg/kg/injection, schedule: Q01DX Z (ip), vehicle: carboxymethylcellulose (CMC)) was 4 of 6. The survivor count (dose: 50.0 mg/kg/injection, schedule: Q01DX Z (ip), vehicle: carboxymethylcellulose (CMC)) was 1 of 6, 4 of 6, 5 of 6, the survivor count (dose: 75.0 mg/kg/injection, schedule: Q01DX Z (ip), vehicle: carboxymethylcellulose (CMC)) was 0 of 6 and the survivor count (dose: 100.0 mg/kg/injection, schedule: Q01DX Z (ip), vehicle: carboxymethylcellulose (CMC)) was 0 of 6. For the same compound, the survivor count (dose: 144.0 mg/kg/injection, schedule: Q01DX001 (ip), vehicle: carboxymethylcellulose (CMC)) was 0 of 10, the survivor count (dose: 150.0 mg/kg/injection, schedule: Q01DX Z (ip), vehicle: carboxymethylcellulose (CMC)) was 0 of 6 and the survivor count (dose: 200.0 mg/kg/injection, schedule: Q01DX Z (ip), vehicle: carboxymethylcellulose (CMC)) was 0 of 6. For the same compound, the survivor count (dose: 288.0 mg/kg/injection, schedule: Q01DX001 (ip), vehicle: carboxymethylcellulose (CMC)) was 0 of 10.

With `N=C(N)SCCN1C(=O)c2ccccc2C1=O` the survivor count (dose: 200.0 mg/kg/injection, schedule: Q04DX003 (ip), vehicle: saline with Tween-80) was 1 of 6 and the survivor count (dose: 400.0 mg/kg/injection, schedule: Q04DX003 (ip), vehicle: saline with Tween-80) was 0 of 6.

With `Cc1ccc(S(=O)(=O)O)cc1` the survivor count [1] was 2 of 6, the survivor count [3] was 0 of 6 and the survivor count (dose: 200.0 mg/kg/injection, schedule: Q04DX003 (ip), vehicle: saline) was 0 of 6. For the same compound, the survivor count (dose: 400.0 mg/kg/injection, schedule: Q01DX009 (ip), vehicle: saline) was 0 of 6 and 4 of 6 and the survivor count (dose: 400.0 mg/kg/injection, schedule: Q04DX003 (ip), vehicle: saline) was 0 of 6.

For `S=C=Nc1cccc(Cl)c1`, the survivor count (dose: 100.0 mg/kg/injection, schedule: Q04DX002 (ip), vehicle: Klucel (hydroxypropylcellulose) (HPC)) was 1 of 3, the survivor count [4] was 0 of 3 and the survivor count (dose: 300.0 mg/kg/injection, schedule: Q01DX001 (ip), vehicle: saline) was 0 of 6. For the same compound, the survivor count [5] was 0 of 3.

With `CCCCSCCSC(=N)N` the survivor count (dose: 100.0 mg/kg/injection, schedule: Q04DX002 (ip), vehicle: saline) was 0 of 3, the survivor count (dose: 200.0 mg/kg/injection, schedule: Q04DX002 (ip), vehicle: saline) was 0 of 3 and the survivor count (dose: 400.0 mg/kg/injection, schedule: Q04DX002 (ip), vehicle: saline) was 0 of 3.

For `Clc1cc(Cl)c(I)c(Cl)c1`, the survivor count (dose: 400.0 mg/kg/injection, schedule: Q01DX009 (ip), vehicle: Klucel (hydroxypropylcellulose) (HPC)) was 6 of 6.

`Cn1c(O)c(N)c(=O)n(C)c1=O` was tested, and the survivor count [3] was 2 of 3.

In the case of `O=C(Cc1ccccc1)NCc1ccco1`, the survivor count (dose: 100.0 mg/kg/injection, schedule: Q01DX009 (ip), vehicle: Klucel (hydroxypropylcellulose) (HPC)) is reported as 1 of 6, the survivor count [4] is reported as 0 of 3 and the survivor count [5] is reported as 0 of 3.

With `O=NN1CCCCCC1C(=O)O` (centres undefined) the survivor count (dose: 400.0 mg/kg/injection, schedule: Q01DX001 (ip), vehicle: saline) was 2 of 4.
